These are yes or no findings as the source states them, for the method shown. In cells and extracts the contact can be indirect. Some entries that bind do so weakly or less than the wild type.
What was measured:
[1] = biological target: activating transcription factor 6α (mouse (endogenous in AML12)) (UniProt F6VAN0); assay: co-IP; AML12 cells treated with DMSO or Tm (5 µg/ml) for 12 h, immunoprecipitation with the indicated antibodies and western blot; antibodies at 1:200 for immunoprecipitation
[2] = biological target: T1, Orphan nuclear receptor ERRγ (mouse (endogenous in AML12)) (UniProt P62509); assay: as above
T1 sequence: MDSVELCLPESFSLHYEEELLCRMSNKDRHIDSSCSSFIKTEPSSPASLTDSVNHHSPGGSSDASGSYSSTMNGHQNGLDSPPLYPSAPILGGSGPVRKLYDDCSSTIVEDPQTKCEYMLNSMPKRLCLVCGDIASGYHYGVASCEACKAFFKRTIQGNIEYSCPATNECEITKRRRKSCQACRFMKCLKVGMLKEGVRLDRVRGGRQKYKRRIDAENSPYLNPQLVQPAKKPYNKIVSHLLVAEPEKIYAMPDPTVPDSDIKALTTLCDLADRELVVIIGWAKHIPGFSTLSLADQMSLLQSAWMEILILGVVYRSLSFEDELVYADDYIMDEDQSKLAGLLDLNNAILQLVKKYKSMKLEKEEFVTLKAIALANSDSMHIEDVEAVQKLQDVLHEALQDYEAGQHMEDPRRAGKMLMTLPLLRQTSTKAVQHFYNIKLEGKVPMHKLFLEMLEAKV

Amino acid sequences for entries named in this document (tags omitted).
UniProt F6VAN0: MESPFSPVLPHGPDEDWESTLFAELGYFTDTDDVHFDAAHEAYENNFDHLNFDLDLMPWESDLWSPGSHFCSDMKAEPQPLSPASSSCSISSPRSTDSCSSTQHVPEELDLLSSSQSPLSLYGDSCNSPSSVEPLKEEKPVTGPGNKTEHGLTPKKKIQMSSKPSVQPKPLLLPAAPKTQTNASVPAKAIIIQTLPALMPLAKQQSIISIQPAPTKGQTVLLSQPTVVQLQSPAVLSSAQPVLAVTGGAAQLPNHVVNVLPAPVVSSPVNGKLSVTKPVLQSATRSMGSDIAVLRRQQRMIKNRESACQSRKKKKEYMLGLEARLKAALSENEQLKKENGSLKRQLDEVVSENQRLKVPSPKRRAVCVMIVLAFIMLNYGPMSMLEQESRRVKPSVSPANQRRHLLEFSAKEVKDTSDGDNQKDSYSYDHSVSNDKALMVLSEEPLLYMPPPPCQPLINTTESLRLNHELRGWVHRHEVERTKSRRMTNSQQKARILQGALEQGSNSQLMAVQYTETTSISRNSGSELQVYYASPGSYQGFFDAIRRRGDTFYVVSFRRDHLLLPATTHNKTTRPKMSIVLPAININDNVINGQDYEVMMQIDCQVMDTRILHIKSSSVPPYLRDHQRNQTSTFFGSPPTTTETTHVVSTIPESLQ

binding [1]: binds
binding [2]: binds
B1: peroxisome proliferator-activated receptor gamma coactivator 1-α (protein, UniProt O70343 1-797)
chain: MAWDMCSQDSVWSDIECAALVGEDQPLCPDLPELDLSELDVNDLDTDSFLGGLKWCSDQSEIISNQYNNEPANIFEKIDEENEANLLAVLTETLDSLPVDEDGLPSFDALTDGAVTTDNEASPSSMPDGTPPPQEAEEPSLLKKLLLAPANTQLSYNECSGLSTQNHAANHTHRIRTNPAIVKTENSWSNKAKSICQQQKPQRRPCSELLKYLTTNDDPPHTKPTENRNSSRDKCASKKKSHTQPQSQHAQAKPTTLSLPLTPESPNDPKGSPFENKTIERTLSVELSGTAGLTPPTTPPHKANQDNPFKASPKLKPSCKTVVPPPTKRARYSECSGTQGSHSTKKGPEQSELYAQLSKSSGLSRGHEERKTKRPSLRLFGDHDYCQSLNSKTDILINISQELQDSRQLDFKDASCDWQGHICSSTDSGQCYLRETLEASKQVSPCSTRKQLQDQEIRAELNKHFGHPCQAVFDDKSDKTSELRDGDFSNEQFSKLPVFINSGLAMDGLFDDSEDESDKLSYPWDGTQPYSLFDVSPSCSSFNSPCRDSVSPPKSLFSQRPQRMRSRSRSFSRHRSCSRSPYSRSRSRSPGSRSSSRSCYYYESSHYRHRTHRNSPLYVRSRSRSPYSRRPRYDSYEAYEHERLKRDEYRKEHEKRESERAKQRERQKQKAIEERRVIYVGKIRPDTTRTELRDRFEVFGEIEECTVNLRDDGDSYGFITYRYTCDAFAALENGYTLRRSNETDFELYFCGRKQFFKSNYADLDTNSDDFDPASTKSKYDSLDFDSLLKEAQRSLRR

— PMC3737538
